PubChem BioAssay AID2685 (National Center for Advancing Translational Sciences (NCATS), 2010)
Some of the results follow. Shown are side measurements of this screen, not its main read-out; they come without a call. Most of these compounds were active or inconclusive in the main read-out, so they are no random draw. Words in brackets tell the shape of the fitted curve; partial curves, single points and poor fits give uncertain potencies.

Assay: qHTS Assay for Lipid Storage Modulators in Drosophila S3 Cells;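 on cell number change: cells counted by Cell Tracker Red CMTPX staining in the red channel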
Conditions: BODIPY lipid droplet fluorescence, 18-24 h; for cell number change: measured here: cell count max response, cells fed with added oleic acid
Outline: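 Drosophila S3 cells got compounds at several concentrations plus oleic acid (400 uM solution). Laser-scanning cytometry with 488 nm excitation read lipid droplets at 500-530 nm and cells at 575-640 nm. Percent activity was relative to 20 uM Triacsin C.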

[1] = measured here: lipid fluorescence (Fed channel) AC50, cells fed with added oleic acid
[2] = measured here: cell number channel AC50, cells fed with added oleic acid

Row | SMILES | cell number change [%] | AC50 [1] | AC50 [2]
1 | Cc1cccc(C)c1NC(=O)CN(C)C(=O)CSCc1c(C)noc1C | 5.3 | 0.206 µM [rising, full curve, poor fit] | –
2 | O=C(Nc1ccc(C(=O)N2CCC(O)(c3ccc(Cl)c(C(F)(F)F)c3)CC2)cc1)c1ccc(Br)o1 | 3.96 | 3.26 µM [falling, single point] | 6.51 µM [falling, single point]
3 | CCC1SC(CC)C(=O)N(CC(=O)NC2CCCCC2)C1=O (configuration not stated) | 1.68 | – | 0.00517 µM [rising, full curve, poor fit]
4 | CCOC(=O)c1c(S(=O)(=O)NCC(=O)N2CCN(c3cccc(OC)c3)CC2)c(C)n(C)c1C | 55.3 | 29.1 µM [rising, single point] | 29.1 µM [rising, single point]
5 | Fc1ccc(N2CCN(/C=C/c3nnnn3-c3ccccc3)CC2)cc1 | – | 0.0058 µM [falling, full curve, poor fit] | –
6 | O=C1Nc2cc(C(=O)N3CCN(c4ccccc4F)CC3)ccc2NC1CSCc1ccccc1F (configuration not stated) | – | – | 2.06 µM [rising, partial curve, poor fit]
7 | COc1ccc(OC(C)C(=O)Nc2ccccc2C(F)(F)F)cc1 (configuration not stated) | -7.22 | 18.4 µM [rising, single point] | –
8 | Cc1cccn2c(=O)nc(SCC(=O)N3CCCCCC3)nc12 | – | – | 2.06 µM [rising, single point]
9 | CC(C)[C@H](NC(=O)N1CC(=O)Nc2ccccc21)C(=O)N[C@@H](Cc1ccccc1)C(=O)O | 2.16 | 1.03 µM [rising, full curve, poor fit] | –
10 | S=C(c1ccccc1)N1CCN(C(=S)c2ccccc2)CC1 | 53.5 | 0.058 µM [falling, full curve, poor fit] | 29.1 µM [rising, single point]
11 | CC(=O)NC(Cc1c[nH]c2ccccc12)C(=O)OCC(=O)N1CCCCCC1 (configuration not stated) | -44.2 | – | –
12 | N#C/C(=C\c1c[nH]c2ccccc12)C(=O)NC1CC1 | 1.62 | – | –
13 | O=C(Nc1cccc(Cl)c1N1CCOCC1)c1cc([N+](=O)[O-])ccc1N1CCOCC1 | – | 8.2 µM [falling, single point] | –
14 | CS(=O)(=O)c1ccc(Cl)c(NC(=O)CSc2nnc(-c3cccs3)n2N)c1 | 12.4 | 25.9 µM [rising, single point] | –
15 | CC(C)CN(C(=O)CCC1CCCCC1)c1c(N)n(CC(C)C)c(=O)[nH]c1=O | 6.4 | 29.1 µM [rising, single point] | –
16 | Cc1cc(C)cc(N(CC(=O)NCc2ccco2)C(=O)c2snc(C(N)=O)c2N)c1 | -9.59 | 5.17 µM [falling, single point] | –
17 | Oc1[nH]c2ccccc2c1C=Nc1ccc2c(c1)OCO2 | 8.67 | – | 1.64 µM [rising, partial curve, poor fit]
18 | CC(=O)Nc1ccc(Nc2nnc(-c3ccc(C)c(S(N)(=O)=O)c3)c3ccccc23)cc1 | 31.1 | 20.6 µM [rising, single point] | 7.31 µM [rising, partial curve]
19 | Cc1cccc(C)c1NC(=O)CSCCO | -24.2 | – | –
20 | O=C1c2ccncc2C(=O)N1CNc1ccc(Cl)cc1 | -14.6 | 0.517 µM [falling, full curve, poor fit] | –

Row | SMILES | cell number change [%] | AC50 [1] | AC50 [2]
21 | O=C(NCCc1cccc(Cl)c1)c1cccc(-n2cnnn2)c1 | -7.68 | 29.1 µM [falling, single point] | –
22 | CCOc1ccc(CCNC(=O)COC(=O)c2ccc(OC)c(OC)c2OC)cc1OCC | -33 | 16.4 µM [falling, partial curve, poor fit] | –
23 | CCOC(=O)C1CCCN(C/C(O)=C(\C#N)c2nc(-c3ccc(Cl)cc3)cs2)C1 (configuration not stated) | – | – | 1.3 µM [rising, full curve]
24 | C=CCn1c(-c2ccccc2)c[nH]c1=S | – | 2.31 µM [rising, partial curve] | 4.61 µM [rising, partial curve]
25 | O=C1CSC(=S)N1 | 14.6 | – | –
26 | O=C(CSc1nnc(CNC(=O)c2c(F)cccc2Cl)o1)Nc1ccccc1 | 32.8 | 6.51 µM [rising, single point] | 0.517 µM [rising, partial curve, poor fit]
27 | CCOc1ccc2c(c1)cc(CN(C(=O)CC)C1CCCCC1)c1nnnn12 | -4.43 | 0.13 µM [falling, full curve, poor fit] | –
28 | Nc1c(-c2cccc(Cl)c2)cnn1-c1cccc(C(F)(F)F)c1 | -0.837 | 29.1 µM [falling, single point] | 0.651 µM [rising, single point]
29 | Cc1nc(NC(=O)CSc2nnnn2C)sc1C | 1.88 | 7.31 µM [rising, single point] | –
30 | CCCC12CN3CC(CCC)(CN(C1)C3c1ccco1)C2=O (configuration not stated) | -11.2 | – | –
31 | CCc1c(C)nc(N2CCN(c3ccc(OC)cc3)CC2)[nH]c1=O | 20.7 | 29.1 µM [rising, single point] | –
32 | O=C(NNC(=O)c1ccccc1C(=O)O)c1ccc(S(=O)(=O)N2CCCCC2)cc1 | 9.27 | – | –
33 | CCN(CC)C(=O)/C(=C\c1cccc([N+](=O)[O-])c1)NC(=O)c1ccco1 | 2.91 | 23.1 µM [rising, single point] | –
34 | COc1cc(OC)c(OC)cc1CN1CCN(Cc2ccc(C(F)(F)F)cc2)CC1 | -9.07 | 32.6 µM [falling, single point] | –
35 | COc1ccc(CCC(=O)Nc2nc3c(s2)CN(C)CC3)cc1OC | 3.03 | – | –
36 | O=[N+]([O-])c1cnc2nc(-c3ccncc3)nn2c1O | 102 | 6.51 µM [rising, partial curve, poor fit] | 5.8 µM [rising, full curve]
37 | CS(=O)(=O)N1CCN(c2ccccc2NC(=O)Nc2cccc(Cl)c2)CC1 | -1.04 | 13 µM [falling, partial curve, poor fit] | –
38 | N#Cc1ccc(-c2cccnc2)nc1SCC(=O)c1ccccc1 | -19 | 29.1 µM [falling, single point] | –
39 | Cc1cc(OC(C)C(=O)N2CCN(c3ccc(F)cc3)CC2)c2c(C)cc(=O)oc2c1 (configuration not stated) | 8.24 | – | –
40 | Cc1cccc(NC(=O)CSc2nccn2Cc2ccco2)c1C | 30.3 | 17.8 µM [rising, single point] | 7.08 µM [rising, full curve, poor fit]

Part of the list above, in CSV form.
Row,SMILES,cell number change [%],AC50 [1],AC50 [2]
32,O=C(NNC(=O)c1ccccc1C(=O)O)c1ccc(S(=O)(=O)N2CCCCC2)cc1,9.27,–,–
33,CCN(CC)C(=O)/C(=C\c1cccc([N+](=O)[O-])c1)NC(=O)c1ccco1,2.91,"23.1 µM [rising, single point]",–
34,COc1cc(OC)c(OC)cc1CN1CCN(Cc2ccc(C(F)(F)F)cc2)CC1,-9.07,"32.6 µM [falling, single point]",–
35,COc1ccc(CCC(=O)Nc2nc3c(s2)CN(C)CC3)cc1OC,3.03,–,–

More results

Row | SMILES | cell number change [%] | AC50 [1] | AC50 [2]
41 | COC(=O)c1c(NC(=O)CN2CCC(C(N)=O)CC2)c2c(C)cccc2n1C | – | – | 3.26 µM [falling, single point]
42 | C=CCNC(=O)CSc1nnc(-c2cccs2)o1 | 13.6 | 13 µM [rising, partial curve, poor fit] | –
43 | CCOC(=O)c1c(CN(C)C)n(C)c2ccc(OC(C)=O)cc12 | – | 0.184 µM [rising, full curve] | –
44 | CCN(CC)C1CC(=O)N(c2cccc(Cl)c2)C1=O (configuration not stated) | 4.99 | 29.1 µM [falling, single point] | –
45 | N#CCC(=O)c1ccccc1Oc1ccc(Cl)cc1 | -63.1 | – | –
46 | CCOC(=O)c1c(NC(=O)c2c(-c3ccccc3)noc2C)sc(C)c1-c1ccccc1 | – | 0.259 µM [rising, partial curve, poor fit] | 1.3 µM [rising, partial curve]
47 | O=C(Nc1cc(C(F)(F)F)cc(C(F)(F)F)c1)c1ccc(Cn2cc(C(F)(F)F)ccc2=O)cc1 | 42.5 | 29.1 µM [falling, single point] | –
48 | Cc1cccc(C)c1NC(=O)c1ccc(-c2ccc(Cl)cc2Cl)o1 | -11.7 | 0.0326 µM [rising, full curve, poor fit] | 0.00461 µM [rising, full curve, poor fit]
49 | CCCCOc1ccc(C(=O)NCC(=O)N2CCN(Cc3ccc4c(c3)OCO4)CC2)cc1 | 79.7 | 0.058 µM [falling, full curve, poor fit] | 18.4 µM [rising, partial curve]
50 | O=S(=O)(Nc1ccc2c(c1)OCCO2)c1cnc[nH]1 | -5.27 | 32.6 µM [falling, partial curve] | –
51 | CC(=O)Nc1cccc(-c2csc(N)n2)c1 | 17.8 | – | –
52 | Cc1ccc(C(=O)NC(=S)Nc2ccc(N3CCOCC3)cc2)c(C)c1 | -39.8 | 29.1 µM [rising, single point] | 23.1 µM [falling, single point]
53 | O=C(CC1OC(=O)c2ccccc21)Nc1cccc(S(=O)(=O)N2CCCCCC2)c1 (configuration not stated) | 1.95 | 29.1 µM [falling, single point] | –
54 | COc1ccc(C/C(O)=C(\C#N)c2nc3ccccc3s2)cc1 | – | – | 0.092 µM [falling, full curve, poor fit]
55 | NCCNC(=O)c1c(O)c2cccc3c2n(c1=O)CCC3 | 8.77 | 3.66 µM [falling, single point] | –
56 | O=C(Nc1cccc(C(=O)O)c1)/C(=C\c1ccc(F)cc1)NC(=O)c1ccco1 | 20.5 | 0.103 µM [falling, partial curve, poor fit] | –
57 | CCc1cc2c(-c3ccccc3)cc(=O)oc2cc1OC(=O)c1cccs1 | 2.22 | 4.11 µM [rising, single point] | –
58 | CN1CCN(C(=O)C(Cc2ccccc2)NS(=O)(=O)c2ccc3c(c2)CCC(=O)N3)CC1 (configuration not stated) | -0.507 | – | –
59 | COc1ccc(S(=O)(=O)N2CCC(C(=O)NCCN3CCOCC3)CC2)cc1 | -28.1 | 18.4 µM [falling, single point] | –
60 | CC(=O)c1c(C)[nH]c(C(=O)CSc2nc3ccc(C)cc3[nH]2)c1C | – | 6.51 µM [rising, single point] | 3.26 µM [rising, partial curve, poor fit]
